Data taken from paper PMC4403260.
Results are given in words; binding and its absence hold for the method and conditions named. In cells and extracts the contact can be indirect. Some results given as binding are weak or reduced against the parent protein; the word gives no strength.

Protein sequences, listed by entry. Tags and fused reporters are not part of them. Lines headed by an entry give the natural chain unless they say otherwise; changes in a name come on top.
UniProt Q00416: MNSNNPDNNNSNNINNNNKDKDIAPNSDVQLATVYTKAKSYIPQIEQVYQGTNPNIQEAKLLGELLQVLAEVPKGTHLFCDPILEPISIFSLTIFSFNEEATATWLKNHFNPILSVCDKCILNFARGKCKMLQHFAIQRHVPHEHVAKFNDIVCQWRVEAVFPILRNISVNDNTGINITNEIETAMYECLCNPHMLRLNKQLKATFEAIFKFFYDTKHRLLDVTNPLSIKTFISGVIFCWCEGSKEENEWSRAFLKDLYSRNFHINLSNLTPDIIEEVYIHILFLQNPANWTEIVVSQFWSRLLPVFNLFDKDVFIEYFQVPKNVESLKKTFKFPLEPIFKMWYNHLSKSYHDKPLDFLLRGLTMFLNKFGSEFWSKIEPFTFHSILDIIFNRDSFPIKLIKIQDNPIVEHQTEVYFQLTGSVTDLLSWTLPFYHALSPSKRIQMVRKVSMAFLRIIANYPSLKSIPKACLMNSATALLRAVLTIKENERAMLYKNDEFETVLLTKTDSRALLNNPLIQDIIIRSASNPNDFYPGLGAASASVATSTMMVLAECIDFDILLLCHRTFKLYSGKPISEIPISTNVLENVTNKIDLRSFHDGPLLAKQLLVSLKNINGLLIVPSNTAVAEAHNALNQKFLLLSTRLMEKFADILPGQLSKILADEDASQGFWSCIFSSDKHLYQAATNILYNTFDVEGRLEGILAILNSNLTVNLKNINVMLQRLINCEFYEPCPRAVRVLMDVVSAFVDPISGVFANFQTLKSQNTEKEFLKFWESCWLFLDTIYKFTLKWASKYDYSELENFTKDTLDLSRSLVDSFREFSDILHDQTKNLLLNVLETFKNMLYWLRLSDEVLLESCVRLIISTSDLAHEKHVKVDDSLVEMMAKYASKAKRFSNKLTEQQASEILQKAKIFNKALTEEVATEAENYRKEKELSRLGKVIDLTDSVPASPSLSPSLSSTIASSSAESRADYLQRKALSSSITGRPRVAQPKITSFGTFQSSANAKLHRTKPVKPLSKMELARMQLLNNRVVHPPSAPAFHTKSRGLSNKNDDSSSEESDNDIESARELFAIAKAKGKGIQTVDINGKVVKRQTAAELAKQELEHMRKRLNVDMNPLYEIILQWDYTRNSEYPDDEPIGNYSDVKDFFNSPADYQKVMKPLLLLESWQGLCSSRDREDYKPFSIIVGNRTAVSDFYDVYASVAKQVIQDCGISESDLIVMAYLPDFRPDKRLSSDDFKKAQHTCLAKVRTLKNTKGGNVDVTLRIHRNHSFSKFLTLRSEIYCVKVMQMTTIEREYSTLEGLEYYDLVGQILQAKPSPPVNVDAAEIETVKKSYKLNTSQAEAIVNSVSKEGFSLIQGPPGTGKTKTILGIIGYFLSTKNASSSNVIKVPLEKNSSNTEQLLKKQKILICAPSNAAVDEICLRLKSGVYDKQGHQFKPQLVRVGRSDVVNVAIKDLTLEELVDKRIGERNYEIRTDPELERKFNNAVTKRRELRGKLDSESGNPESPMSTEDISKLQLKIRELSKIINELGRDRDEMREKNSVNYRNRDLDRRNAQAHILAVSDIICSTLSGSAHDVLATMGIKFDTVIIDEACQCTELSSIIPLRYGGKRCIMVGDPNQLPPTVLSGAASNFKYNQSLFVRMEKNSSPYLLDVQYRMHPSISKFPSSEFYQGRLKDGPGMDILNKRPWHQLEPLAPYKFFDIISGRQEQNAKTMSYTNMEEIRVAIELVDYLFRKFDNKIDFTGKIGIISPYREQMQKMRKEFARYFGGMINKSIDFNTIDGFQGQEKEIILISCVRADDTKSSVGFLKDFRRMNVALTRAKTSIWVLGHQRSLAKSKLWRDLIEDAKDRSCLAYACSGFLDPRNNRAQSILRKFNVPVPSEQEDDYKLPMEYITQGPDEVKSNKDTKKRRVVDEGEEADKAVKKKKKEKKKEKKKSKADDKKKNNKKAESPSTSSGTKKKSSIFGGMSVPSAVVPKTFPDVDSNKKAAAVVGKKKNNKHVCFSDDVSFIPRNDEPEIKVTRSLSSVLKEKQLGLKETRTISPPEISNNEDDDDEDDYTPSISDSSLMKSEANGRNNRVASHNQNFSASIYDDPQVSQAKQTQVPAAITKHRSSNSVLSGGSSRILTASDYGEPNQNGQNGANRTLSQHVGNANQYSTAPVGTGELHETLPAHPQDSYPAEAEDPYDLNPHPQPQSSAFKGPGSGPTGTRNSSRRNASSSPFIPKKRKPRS

Columns and labels:
Nrd1-TAP (S. cerevisiae) = molecular target: T1, Nrd1-TAP (S. cerevisiae) (UniProt P53617); experiment: co-IP; fractions coprecipitated with Nrd1-TAP from protein extracts of wild type and pcf11-9 yeast; Western blot with PAP, anti-Nab3 and anti-HA antibodies
T1 sequence: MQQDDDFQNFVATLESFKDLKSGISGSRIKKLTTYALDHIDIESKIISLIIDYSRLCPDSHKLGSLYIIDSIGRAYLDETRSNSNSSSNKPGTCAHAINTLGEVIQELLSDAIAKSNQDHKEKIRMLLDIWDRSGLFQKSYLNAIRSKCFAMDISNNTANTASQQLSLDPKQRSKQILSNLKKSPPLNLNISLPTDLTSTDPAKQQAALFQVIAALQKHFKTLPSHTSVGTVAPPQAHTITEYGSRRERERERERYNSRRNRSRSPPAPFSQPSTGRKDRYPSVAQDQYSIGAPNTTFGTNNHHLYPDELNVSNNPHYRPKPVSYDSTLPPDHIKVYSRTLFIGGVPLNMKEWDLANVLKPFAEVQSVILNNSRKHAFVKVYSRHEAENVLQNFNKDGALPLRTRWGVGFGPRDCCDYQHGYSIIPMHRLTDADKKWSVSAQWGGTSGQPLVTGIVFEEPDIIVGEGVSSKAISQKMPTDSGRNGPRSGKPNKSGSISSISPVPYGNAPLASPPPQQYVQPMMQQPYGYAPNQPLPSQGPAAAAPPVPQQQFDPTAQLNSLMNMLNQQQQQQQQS

[1] = molecular target: Sen1-R302W-myc (S. cerevisiae) (UniProt Q00416); experiment: co-IP; Sen1-R302W-myc precipitated with anti-myc antibody from protein extracts of wild type and pcf11-13 yeast; extracts incubated 2 h at 4°C with protein A and G magnetic beads; Western blot with anti-CTD CMA601 and anti-Nab3 antibodies

Q: How did the binding (Nrd1-TAP (S. cerevisiae)) turn out when Sen1-HA (from UniProt Q00416 1-2231) was run?
A: Its binding is “binds”.

B1: Nab3 (protein, UniProt P38996 1-802)
chain: MSDENHNSDVQDIPSPELSVDSNSNENELMNNSSADDGIEFDAPEEEREAEREEENEEQHELEDVNDEEEEDKEEKGEENGEVINTEEEEEEEHQQKGGNDDDDDDNEEEEEEEEDDDDDDDDDDDDEEEEEEEEEEGNDNSSVGSDSAAEDGEDEEDKKDKTKDKEVELRRETLEKEQKDVDEAIKKITREENDNTHFPTNMENVNYDLLQKQVKYIMDSNMLNLPQFQHLPQEEKMSAILAMLNSNSDTALSVPPHDSTISTTASASATSGARSNDQRKPPLSDAQRRMRFPRADLSKPITEEEHDRYAAYLHGENKITEMHNIPPKSRLFIGNLPLKNVSKEDLFRIFSPYGHIMQINIKNAFGFIQFDNPQSVRDAIECESQEMNFGKKLILEVSSSNARPQFDHGDHGTNSSSTFISSAKRPFQTESGDMYNDDNGAGYKKSRRHTVSCNIFVKRTADRTYAIEVFNRFRDGTGLETDMIFLKPRMELGKLINDAAYNGVWGVVLVNKTHNVDVQTFYKGSQGETKFDEYISISADDAVAIFNNIKNNRNNSRPTDYRAMSHQQNIYGAPPLPVPNGPAVGPPPQTNYYQGYSMPPPQQQQQQPYGNYGMPPPSHDQGYGSQPPIPMNQSYGRYQTSIPPPPPQQQIPQGYGRYQAGPPPQPPSQTPMDQQQLLSAIQNLPPNVVSNLLSMAQQQQQQPHAQQQLVGLIQSMQGQAPQQQQQQLGGYSSMNSSSPPPMSTNYNGQNISAKPSAPPMSHQPPPPQQQQQQQQQQQQQQQQPAGNNVQSLLDSLAKLQK
Q: B1 was tested. Which binding (Nrd1-TAP (S. cerevisiae)) did it give?
A: Its binding is “binds”.

Q: And the binding [1]?
A: The binding was “binds”.
